The text below walks through data of PubChem BioAssay AID1671193 (National Center for Advancing Translational Sciences (NCATS), 2021).

The entries are a selection whose mix differs from that of the whole data set. Records with an inconclusive call do not appear. Active and inactive are the calls of the source. The call rests on the fitted dose curve; in most records, active means well fitted cell-killing curve with a large enough effect; inconclusive means small, poorly fitted or top-dose-only effect, or effect the other way; inactive means flat fitted curve, though single readings scatter.
Potency means the concentration at half of the fitted maximal effect.

The assay in a line: GF-AFC viability counterscreen for inhibitors of alpha-synuclein gene (SNCA) expression. Further: nearly all actives have a fitted effect of over 30% in size. The note with it: HEK-293-SNCA-luc viability, GF-AFC fluorescence, 24 h. From the text:
Assay Submitter (PI): Daniel R. Scoles Ph.D.
Department of Neurology, University of Utah, Salt Lake City, Utah
Accumulation of alpha-synuclein is a main underlying pathological feature of Parkinson's disease (PD) and alpha-synucleinopathies, for which lowering expression of the alpha-synuclein gene (SNCA) is a potential therapeutic avenue. Using a cell-based luciferase reporter of SNCA expression we performed a quantitative high throughput screen (qHTS) of 155,885 compounds in dose response. The screening assay was generated using genome editing to insert the luciferase gene downstream and in frame of the SNCA gene in HEK-293 cells (1). A viability counterscreen using GF-AFC was used to eliminate cytotoxic and false positive compounds. […]
Described herein are the results of the GF-AFC viability counterscreen for SNCA inhibitors; inactivity (no decrease in fluorescence signal, not cytotoxic) is the desired output for this assay. […]
7; Detector; Fluorescence; Measure fluorescence with ViewLux microplate reader (PerkinElmer) equipped with 405/10 excitation and 540/25 emission filters. […]
10; Detector; Luminescence; Measure luminescence with ViewLux microplate reader (PerkinElmer) equipped with clear filters. […]
10; Signals were analyzed, and dose-response curves were fit using the Hill equation. […]
Background: Counterscreens check selectivity or assay interference.
Take `CN[C@@H]1C[C@H]2O[C@@](C)([C@@H]1OC)n1c3ccccc3c3c4c(c5c6ccccc6n2c5c31)C(=O)NC4`: the Potency was active: 4.74 µM.
